The target in test [1] is T1, WAVE3 (human (endogenous in MDA-MB-231)) (UniProt Q9UPY6).
T1 sequence: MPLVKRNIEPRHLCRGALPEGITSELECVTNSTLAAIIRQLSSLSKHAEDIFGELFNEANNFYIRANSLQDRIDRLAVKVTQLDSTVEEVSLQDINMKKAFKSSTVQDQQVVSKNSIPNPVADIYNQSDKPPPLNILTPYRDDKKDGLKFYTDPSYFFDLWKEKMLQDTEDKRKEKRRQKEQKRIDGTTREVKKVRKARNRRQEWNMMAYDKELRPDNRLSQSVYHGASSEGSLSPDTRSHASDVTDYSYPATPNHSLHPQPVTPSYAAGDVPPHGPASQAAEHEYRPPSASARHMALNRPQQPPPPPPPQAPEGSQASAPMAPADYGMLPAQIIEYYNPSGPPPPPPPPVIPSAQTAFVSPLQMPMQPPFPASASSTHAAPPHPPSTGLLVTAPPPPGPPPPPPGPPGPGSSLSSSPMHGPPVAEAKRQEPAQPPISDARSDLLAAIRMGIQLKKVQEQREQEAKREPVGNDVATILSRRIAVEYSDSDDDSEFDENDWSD
Description: co-IP; MDA-MB-231 cell lysates immunoprecipitated with anti-WAVE3, anti-YB1 or control IgG; immunoblot for the other protein.

The chains behind the UniProt entries cited, without tags or fusion partners.
UniProt P67809: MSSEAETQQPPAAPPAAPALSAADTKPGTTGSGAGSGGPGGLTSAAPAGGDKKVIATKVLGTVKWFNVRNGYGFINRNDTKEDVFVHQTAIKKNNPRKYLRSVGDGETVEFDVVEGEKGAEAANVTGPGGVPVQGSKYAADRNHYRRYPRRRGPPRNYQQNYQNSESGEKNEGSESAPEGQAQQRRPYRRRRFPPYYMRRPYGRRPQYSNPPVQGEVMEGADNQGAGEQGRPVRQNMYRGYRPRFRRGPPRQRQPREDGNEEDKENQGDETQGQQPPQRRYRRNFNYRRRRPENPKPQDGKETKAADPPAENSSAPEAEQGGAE

The target of test [2] is T2, GFP-tagged full-length WAVE3 (human) (UniProt Q9UPY6).
T2 sequence: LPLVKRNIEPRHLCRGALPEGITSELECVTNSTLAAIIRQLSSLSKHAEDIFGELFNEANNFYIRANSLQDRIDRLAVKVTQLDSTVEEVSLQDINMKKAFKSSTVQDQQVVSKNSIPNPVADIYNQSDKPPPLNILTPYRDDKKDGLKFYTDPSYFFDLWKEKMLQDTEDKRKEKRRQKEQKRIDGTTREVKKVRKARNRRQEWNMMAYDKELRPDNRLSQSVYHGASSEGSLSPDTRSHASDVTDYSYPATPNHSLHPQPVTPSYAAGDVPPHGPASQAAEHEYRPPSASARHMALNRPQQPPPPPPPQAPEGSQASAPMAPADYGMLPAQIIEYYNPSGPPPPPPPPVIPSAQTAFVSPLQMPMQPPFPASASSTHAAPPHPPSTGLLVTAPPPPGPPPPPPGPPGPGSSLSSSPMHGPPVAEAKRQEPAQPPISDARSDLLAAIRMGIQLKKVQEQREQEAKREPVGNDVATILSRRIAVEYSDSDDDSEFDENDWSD
Put plainly: co-IP; lysates of WAVE3-deficient (W3-CRISPR-1) MDA-MB-231 cells transfected with GFP-fused WAVE3 constructs; precipitated with anti-GFP (GFP-nano-antibodies, 2 h at 4°C); immunoblot with anti-YB1.

Test [3] addresses Y-box binding protein-1 (human (endogenous in MDA-MB-231)) (UniProt P67809). Description: co-IP; MDA-MB-231 cell lysates immunoprecipitated with anti-WAVE3, anti-YB1 or control IgG; immunoblot for the other protein.

This passage reports binding results from paper PMC5732788.

Results are given in words; binding and its absence hold for the method and conditions named. In cells and extracts the contact can be indirect. Some results given as binding are weak or reduced against the parent protein; the word gives no strength. For part of these data: Tags and fused reporters may be left off the sequences shown.

As for “Y-box binding protein-1 (from UniProt P67809 1-324)”, the binding entry in test [1] and in test [2] was “binds” each time.

B1: WAVE3 (protein, UniProt Q9UPY6 1-502)
chain: MPLVKRNIEPRHLCRGALPEGITSELECVTNSTLAAIIRQLSSLSKHAEDIFGELFNEANNFYIRANSLQDRIDRLAVKVTQLDSTVEEVSLQDINMKKAFKSSTVQDQQVVSKNSIPNPVADIYNQSDKPPPLNILTPYRDDKKDGLKFYTDPSYFFDLWKEKMLQDTEDKRKEKRRQKEQKRIDGTTREVKKVRKARNRRQEWNMMAYDKELRPDNRLSQSVYHGASSEGSLSPDTRSHASDVTDYSYPATPNHSLHPQPVTPSYAAGDVPPHGPASQAAEHEYRPPSASARHMALNRPQQPPPPPPPQAPEGSQASAPMAPADYGMLPAQIIEYYNPSGPPPPPPPPVIPSAQTAFVSPLQMPMQPPFPASASSTHAAPPHPPSTGLLVTAPPPPGPPPPPPGPPGPGSSLSSSPMHGPPVAEAKRQEPAQPPISDARSDLLAAIRMGIQLKKVQEQREQEAKREPVGNDVATILSRRIAVEYSDSDDDSEFDENDWSD
As for B1, the binding entry in test [3] is “binds”.
